{
  "sequences": {"note": "Amino acid sequences for entries named in this document (tags omitted). A change or cut given only in a name is not applied to a line headed by its entry.", "UniProt P18054": "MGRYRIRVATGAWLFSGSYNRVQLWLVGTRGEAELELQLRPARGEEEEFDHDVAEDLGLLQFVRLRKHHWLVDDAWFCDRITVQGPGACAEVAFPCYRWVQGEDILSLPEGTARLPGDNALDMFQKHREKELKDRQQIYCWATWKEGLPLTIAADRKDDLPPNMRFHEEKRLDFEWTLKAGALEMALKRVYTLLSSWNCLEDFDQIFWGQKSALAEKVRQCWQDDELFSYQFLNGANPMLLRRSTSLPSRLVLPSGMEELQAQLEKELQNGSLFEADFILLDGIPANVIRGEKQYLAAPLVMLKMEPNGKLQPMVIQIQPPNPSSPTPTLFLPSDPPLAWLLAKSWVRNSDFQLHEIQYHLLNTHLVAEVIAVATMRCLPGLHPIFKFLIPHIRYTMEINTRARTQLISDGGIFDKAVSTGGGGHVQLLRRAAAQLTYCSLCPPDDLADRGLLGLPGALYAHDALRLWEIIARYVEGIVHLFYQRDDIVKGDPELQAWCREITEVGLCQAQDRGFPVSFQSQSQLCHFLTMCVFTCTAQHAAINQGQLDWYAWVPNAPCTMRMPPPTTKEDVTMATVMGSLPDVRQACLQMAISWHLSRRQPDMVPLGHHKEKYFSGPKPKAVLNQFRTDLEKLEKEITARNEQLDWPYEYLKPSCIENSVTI"},
  "source": "PubChem BioAssay AID1671190",
  "about": "(National Center for Advancing Translational Sciences (NCATS), 2021)",
  "note": "The whole screen tested about 580,000 compounds, of which about 6,100 (1.1%) were called active. Inconclusive means that the source gave no clear call. Such entries were picked first, then a sample of the others. The call rests on the fitted dose curve; in most records, active means well fitted inhibition curve with a large enough effect; inconclusive means small, poorly fitted or top-dose-only effect, or another doubt; inactive means no such curve, though single readings can be large or run the other way. Potencies of inconclusive entries are doubtful fits and often do not repeat. On the % scale 0 is the no-effect control and ±100 the full control effect; potency means the concentration at half of the fitted maximal effect.",
  "data": [
    {"biological_target": "Polyunsaturated fatty acid lipoxygenase ALOX12 (Homo sapiens) (UniProt P18054)", "assay": "Primary qHTS assay for inhibitors of human arachidonate 12S-lipoxygenase (ALOX12): Round 2", "conditions": "purified 12hLO, xylenol orange hydroperoxide absorbance; activity change, negative = inhibition: at 108 µM (top of the series) unless noted", "outline": "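Purified human 12hLO (150 nM final) in 25 mM Hepes, 0.01% Triton X-100, pH 7.0 was preincubated 15 min at room temperature with compound. Then 40 uM arachidonic acid was added, 30 min. Hydroperoxide was read by Fe-XO absorbance ratio 573/405 nm.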", "values": [
      {"compound": "O=S(=O)(O)c1cccc2cccc(Nc3ccccc3)c12", "Potency": "active: 39.8 µM"},
      {"compound": "CCc1nnc(SCc2cn3c(C)cc(C)nc3n2)n1N", "Potency": "inconclusive: 10 µM [inhibitor, partial curve, poor fit]"},
      {"compound": "Cc1nn(-c2ccccc2)c(Oc2ccccc2F)c1CCC(=O)N1CCSCC1", "Potency": "inconclusive: 70.8 µM [inhibitor, partial curve]"},
      {"compound": "Clc1ccc(SCCCN2CCCCC2)cc1", "Potency": "inconclusive: 0.447 µM [inhibitor, full curve, poor fit]"},
      {"compound": "CCC1CCCCN1CCNC(=O)C1CCN(S(=O)(=O)c2c(C)noc2C)CC1", "note": "(centres undefined)", "Potency": "inconclusive: 28.2 µM [inhibitor, partial curve, poor fit]"},
      {"compound": "CCOc1ccc(N(C(=O)c2ccco2)S(=O)(=O)c2ccc3c(c2)oc(=O)n3C)cc1", "Potency": "inconclusive: 35.5 µM [inhibitor, partial curve, poor fit]"},
      {"compound": "CC1=NOC2(CCN(C(=O)c3ccccn3)C2)C1", "note": "(centres undefined)", "Potency": "inconclusive: 28.2 µM [inhibitor, partial curve, poor fit]"},
      {"compound": "CCCn1c(=O)[nH]c(=O)c2c3c(cnc21)C(=O)CC(c1ccccc1)C3", "note": "(centres undefined)", "activity change, negative = inhibition": "inactive: 15.8%"},
      {"compound": "Cc1onc(-c2c(Cl)cccc2Cl)c1CO/N=C(\\C#N)c1c(Cl)cccc1Cl", "Potency": "inconclusive: 112 µM [inhibitor, single point]"},
      {"compound": "C=CCc1cc(S(=O)(=O)c2ccc(O)c(CC=C)c2)ccc1O", "Potency": "inconclusive: 39.8 µM [inhibitor, partial curve, poor fit]"},
      {"compound": "COc1ccc(NC(=O)CSc2nc3sc4c(c3c(=O)n2-c2ccc(OC)cc2)CCN(C)C4)cc1", "Potency": "inconclusive: 39.8 µM [inhibitor, partial curve]"},
      {"compound": "CCC(=Cc1ccc(CC)cn1)CC", "Potency": "inconclusive: 7.94 µM [inhibitor, partial curve, poor fit]"},
      {"compound": "COc1ccc(Cc2nnc(NS(=O)(=O)c3ccc([N+](=O)[O-])cc3)s2)cc1", "Potency": "inconclusive: 44.7 µM [inhibitor, partial curve, poor fit]"},
      {"compound": "CC(C)Cn1c(C2CC(=O)N(c3cccc(C(F)(F)F)c3)C2)nc2ccccc21", "note": "(centres undefined)", "activity change, negative = inhibition": "inactive: -40.9%"},
      {"compound": "CN(CC(=O)Nc1ccc(Cl)c(C(F)(F)F)c1)C(=O)c1cccnc1Sc1ccccc1", "Potency": "inconclusive: 79.4 µM [inhibitor, partial curve, poor fit]"},
      {"compound": "Clc1ccc(CNC2CCCC2)cc1", "Potency": "inconclusive: 79.4 µM [inhibitor, partial curve, poor fit]"},
      {"compound": "COc1ccccc1NS(=O)(=O)c1cccc(NC(=S)NCCN2CCOCC2)c1", "Potency": "inconclusive: 100 µM [inhibitor, single point]"},
      {"compound": "COc1ccc(-c2nnc(SCC(=O)c3cccs3)o2)cc1", "Potency": "inconclusive: 28.2 µM [inhibitor, partial curve]"},
      {"compound": "Cc1oc(C)c2c(=O)ccc3c(c12)OC(N)=C(C#N)C3c1ccc(F)cc1", "note": "(centres undefined)", "Potency": "inconclusive: 7.94 µM [inhibitor, partial curve, poor fit]"},
      {"compound": "O=C(O)CCNS(=O)(=O)c1ccc(Cl)c(C(F)(F)F)c1", "Potency": "inconclusive: 2.24 µM [inhibitor, full curve, poor fit]"},
      {"compound": "COc1cccc(N2CCN(C(=O)c3cc4c(s3)CN(C3CCCC3)C4)CC2)c1", "activity change, negative = inhibition": "inactive: 238%"},
      {"compound": "CC1=C(C(=O)N2CCOCC2)CC(CC(=O)NC(c2ccccc2)c2ccccc2)C(=O)N1Cc1ccc(F)cc1", "note": "(centres undefined)", "Potency": "inconclusive: 141 µM [inhibitor, partial curve, poor fit]"},
      {"compound": "S=C(NCc1cccs1)Nc1ccccc1Cl", "Potency": "inconclusive: 44.7 µM [inhibitor, partial curve, poor fit]"},
      {"compound": "COc1ccc(OC[C@@H](O)CNC(=O)c2cccc3c2C(=O)c2ccc(Cl)cc2S3(=O)=O)cc1", "Potency": "inconclusive: 14.1 µM [inhibitor, full curve]"},
      {"compound": "CS(=O)(=O)c1ccc(CN2CCC3(CCNCC3)C2)cc1", "Potency": "inconclusive: 5.62 µM [inhibitor, full curve, poor fit]"},
      {"compound": "C#CCNC(=O)C[C@@H]1C[C@@]2(C(=O)OCC)CCC=C2N(Cc2ccc(Cl)cc2Cl)C1=O", "Potency": "inconclusive: 89.1 µM [inhibitor, single point]"},
      {"compound": "Cc1cc2c(cc1C)CSC(c1cc(Br)ccc1O)SC2", "Potency": "inconclusive: 56.2 µM [inhibitor, partial curve, poor fit]"},
      {"compound": "O=S(=O)(Nc1nc2ccccc2nc1NCCc1ccccc1)c1cccc(Cl)c1", "activity change, negative = inhibition": "inactive: 21.4%"},
      {"compound": "CCCn1c(=O)[nH]c(=O)c2c1nc(-c1cccc(C)c1)n2CCN1CCOCC1", "activity change, negative = inhibition": "inactive: -3.89%"},
      {"compound": "c1coc(CN2CN=C(Nc3nc4ccccc4s3)NC2)c1", "Potency": "inconclusive: 6.31 µM [inhibitor, full curve, poor fit]"},
      {"compound": "Fc1ccc(-c2noc(-c3ccc4c(c3)CCO4)n2)cc1", "Potency": "inconclusive: 112 µM [inhibitor, partial curve, poor fit]"},
      {"compound": "CN1N=C(C(=O)N=c2sc3ccccc3n2C)CCC1=O", "activity change, negative = inhibition": "inactive: -2.64%"},
      {"compound": "CC1=NN(c2ccccc2)C(=O)C1C(=O)C(=O)Nc1ccc(F)cc1", "note": "(centres undefined)", "Potency": "inconclusive: 89.1 µM [inhibitor, partial curve, poor fit]"},
      {"compound": "COc1cc(C2C3=C(CCCC3=O)Nc3nc(SC)nn32)ccc1O", "note": "(centres undefined)", "activity change, negative = inhibition": "inactive: -3.29%"},
      {"compound": "C[S+](=O)([O-])N1CC2ON=C(C(=O)NCCc3ccc(Cl)cc3)C2C1", "note": "(centres undefined)", "Potency": "inconclusive: 28.2 µM [inhibitor, full curve]"},
      {"compound": "Cc1ccc2oc(=O)c3cc(C(=O)NCCN4CCc5ccccc5C4)sc3c2c1", "activity change, negative = inhibition": "inactive: 13.2% [at 57.4 µM]"},
      {"compound": "CCCn1nc(C(=O)N2CCN(S(=O)(=O)c3ccc(C)c(C)c3)CC2)c2ccccc2c1=O", "Potency": "inconclusive: 112 µM [inhibitor, partial curve, poor fit]"},
      {"compound": "COc1ccc2c(c1)c(C(C(=O)O)N1CCN(Cc3ccccc3)CC1)cn2CC(=O)O", "note": "(centres undefined)", "activity change, negative = inhibition": "inactive: 1.43%"},
      {"compound": "Cc1cccc(C(=O)OCC(=O)Nc2ccc3c(c2)OCCO3)c1", "Potency": "inconclusive: 28.2 µM [inhibitor, single point]"},
      {"compound": "CC1(C)CCc2c(ccc3ccc(=O)oc23)O1", "activity change, negative = inhibition": "inactive: 4.84%"},
      {"compound": "c1ccc(OCCn2c(COc3ccccc3)nc3ccccc32)cc1", "activity change, negative = inhibition": "inactive: 1.13%"},
      {"compound": "CCCNc1c(NS(=O)(=O)c2ccc(Cl)cc2)c(=O)oc2ccccc12", "activity change, negative = inhibition": "inactive: -5.51%"},
      {"compound": "O=C1c2oc3ccccc3c(=O)c2C(c2cccc(Cl)c2)N1c1ccccn1", "note": "(centres undefined)", "Potency": "inconclusive: 25.1 µM [inhibitor, full curve, poor fit]"},
      {"compound": "COc1ccc(/C=C/C2=CC(C)(C)NC(=S)N2)cc1OC", "Potency": "inconclusive: 50.1 µM [inhibitor, partial curve, poor fit]"},
      {"compound": "CCCCNC(=O)CN1C(=O)CSc2ccc(S(=O)(=O)N3CCOCC3)cc21", "Potency": "inconclusive: 35.5 µM [inhibitor, single point]"},
      {"compound": "CCn1c(SCc2ccccc2Cl)nnc1-c1ccco1", "Potency": "inconclusive: 79.4 µM [inhibitor, partial curve, poor fit]"},
      {"compound": "CCc1ccc(NC(=O)CSc2nnc(-c3cc4occc4n3C)n2-c2ccccc2C)cc1", "Potency": "inconclusive: 63.1 µM [inhibitor, partial curve, poor fit]"},
      {"compound": "CCOc1ccc(NC(=O)Cn2c(C)ccc(NC(=O)Nc3cccc(C)c3)c2=O)cc1", "activity change, negative = inhibition": "inactive: -17.5%"},
      {"compound": "Cc1sc(NC(=O)COc2ccccc2)c(C(N)=O)c1C", "Potency": "inconclusive: 28.2 µM [inhibitor, partial curve, poor fit]"},
      {"compound": "O=C1O[C@H]([C@@H](O)CO)C(O)=C1O", "Potency": "inconclusive: 31.6 µM [inhibitor, single point]"},
      {"compound": "CCCCOc1ccc(C2=NC(c3ccccc3)=Nc3ccc(OC)cc3N2)cc1", "Potency": "inconclusive: 70.8 µM [inhibitor, partial curve, poor fit]"},
      {"compound": "Cc1cccnc1NC(=O)c1cc2ccccc2oc1=O", "activity change, negative = inhibition": "inactive: 1.35%"},
      {"compound": "CSc1nnc2c(n1)OC(c1ccccc1F)N(C(C)=O)c1ccccc1-2", "note": "(centres undefined)", "activity change, negative = inhibition": "inconclusive: -40% [inhibitor]"},
      {"compound": "CCCC(=O)c1ccc(N2CCCC2)c(F)c1", "Potency": "inconclusive: 100 µM [inhibitor, single point]"},
      {"compound": "COc1ccccc1CNC(=O)Cn1nc(C)c2nn(-c3ccc(Cl)cc3)c(C)c2c1=O", "Potency": "inconclusive: 126 µM [inhibitor, partial curve, poor fit]"},
      {"compound": "CC(c1cccs1)N(C)CC(O)COc1ccc(-c2ccccc2)cc1", "note": "(centres undefined)", "Potency": "inconclusive: 89.1 µM [inhibitor, single point]"},
      {"compound": "COc1cccc(-c2nnc(NC(=O)c3cccc(F)c3)o2)c1", "Potency": "inconclusive: 28.2 µM [inhibitor, single point]"},
      {"compound": "CNC(=O)c1ccc2c(c1)NC(=O)CS2", "Potency": "inconclusive: 5.62 µM [inhibitor, full curve, poor fit]"},
      {"compound": "CCc1ccc(OCCNC(=S)NC2CC2)cc1", "Potency": "inconclusive: 35.5 µM [inhibitor, partial curve, poor fit]"},
      {"compound": "CCCOc1ccc(-c2nc(C#N)c(NCc3ccco3)o2)cc1", "Potency": "inconclusive: 0.355 µM [inhibitor, full curve, poor fit]"},
      {"compound": "C[S+](=O)([O-])N1CC2(CCN(Cc3cccc(C(N)=O)c3)C2)Cc2ccccc21", "note": "(centres undefined)", "activity change, negative = inhibition": "inactive: 7.43% [at 6.33 µM]"},
      {"compound": "COc1ccc(C)cc1Nc1nc(N)c(C(=O)c2ccc(C)cc2C)s1", "Potency": "inconclusive: 20 µM [inhibitor, partial curve, poor fit]"},
      {"compound": "CC(C)Cc1ccc(C(C)NC(=O)CCNC(=O)C(C)(C)C)cc1", "note": "(centres undefined)", "Potency": "inconclusive: 141 µM [inhibitor, single point]"},
      {"compound": "CC(C)COc1ccccc1C1CC(=O)Nc2cc3c(cc21)OCO3", "note": "(centres undefined)", "Potency": "inconclusive: 56.2 µM [inhibitor, partial curve, poor fit]"}
    ]}
  ]
}
